# Source: PubChem BioAssay AID652054 (National Center for Advancing Translational Sciences (NCATS), 2013)
# Chains of the proteins cited; added tags and fusions are not shown.
# UniProt P35462, whole entry, looked up: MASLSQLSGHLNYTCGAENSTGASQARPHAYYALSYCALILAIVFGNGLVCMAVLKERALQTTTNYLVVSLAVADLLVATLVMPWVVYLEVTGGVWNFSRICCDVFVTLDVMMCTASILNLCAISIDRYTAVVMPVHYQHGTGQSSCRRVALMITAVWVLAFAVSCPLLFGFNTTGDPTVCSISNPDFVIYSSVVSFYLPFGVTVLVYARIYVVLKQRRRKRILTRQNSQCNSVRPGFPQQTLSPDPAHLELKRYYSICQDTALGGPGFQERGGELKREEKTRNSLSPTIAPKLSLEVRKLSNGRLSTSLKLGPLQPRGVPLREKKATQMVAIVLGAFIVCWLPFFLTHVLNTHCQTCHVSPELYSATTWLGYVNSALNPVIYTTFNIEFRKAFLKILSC
# The whole screen tested about 360,000 compounds, of which about 9,100 (2.5%) were called active. Inconclusive means that the source gave no clear call. Such entries were picked first, then a sample of the others. Cut-off read from the data, not from the text of the source: active = max response below about -50%; inconclusive = no clear call, values can overlap the other calls; inactive = above that.
# Target: D(3) dopamine receptor (Homo sapiens) (UniProt P35462)
# Assay: qHTS of D3 Dopamine Receptor Antagonist: qHTS
# Conditions: D3R cells, DiscoveRx beta-arrestin luminescence, antagonist mode; active compounds read low
# Method in brief: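 Cells expressing the human receptor were seeded at 1500 cells/well, incubated overnight at 37 degrees C in 5% CO2, then exposed to library compounds with dopamine controls for 90 minutes at 37 degrees C before luminescent detection.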
# % is set by controls: 0 for no effect and ±100 for the full control effect.
row,Structure (SMILES),"max response, negative = inhibition"
1,CCN(CC)S(=O)(=O)c1ccc(N2CCCC2)c(NS(=O)(=O)c2ccc([N+](=O)[O-])cc2)c1,inconclusive: -30.8%
2,CCOCCCNC(=S)NNC(=O)CCn1nc(C)c(Br)c1C,active: -97.1%
3,N#Cc1c(NC(=O)CSc2ncn[nH]2)sc2c1CCCC2,inactive: -1.82%
4,COc1ccc(-c2nnc3c4ccccc4c(C)nn23)cc1,inconclusive: -30.8%
5,CN(C)C(=O)c1ccc2c(c1[N+](=O)[O-])C(=O)c1ccccc1C2=O,inconclusive: -35.3%
6,Cc1cc(-c2ccc(C(C)C)c(S(=O)(=O)NCCN3CCC(C)CC3)c2)on1,inactive: -17.8%
7,COc1ccc(CNC(=O)CSC(=S)N2CCCC2)cc1,inconclusive: -31.8%
8,CCOC(=O)c1ccc(Oc2nc(NC)nc(OC)n2)cc1,inconclusive: -38.6%
9,COc1ccc2c(C#CCCO)c(-c3ccc(S(C)(=O)=O)cc3)sc2c1,inactive: 37.9%
10,O=C1CC(N2CCN(C/C=C/c3ccccc3)CC2)C(=O)N1Cc1cccs1 (stereo not drawn),active: -62.7%
11,O=C1C(Cl)=C(NCc2ccco2)C(=O)c2ccccc21,inactive: -14.3%
12,COc1ccc(NC(=S)N(CCCN2CCOCC2)Cc2cn(C)c3ccccc23)cc1,inconclusive: -32.1%
13,O=C(CN1CCC(n2nnc3cc(F)ccc32)CC1)Nc1ccc2c(c1)CCC2,active: -76%
14,Cc1ccccc1C(=O)NC1CC2CCCC(C1)N2Cc1ccc(Cl)cc1 (stereo not drawn),active: -96.9%
15,CCC(C(=O)NCCCN(CC)Cc1ccccc1)n1nc(C)c2sc3ccccc3c2c1=O (stereo not drawn),active: -83.7%
16,CCCOc1ccc(-c2nnc(-c3ccncc3)o2)cc1,active: -70.9%
17,Cc1cccc(N2C(=O)CC(Sc3nnc(C)s3)C2=O)c1 (stereo not drawn),inconclusive: -36.8%
18,CCc1ccc(CN2CCN(c3ncccn3)CC2)cc1,inconclusive: -35.2%
19,COc1ccc(C2c3ccc4ccccc4c3Oc3ncn(CCN4CCOCC4)c(=N)c32)cc1OC (stereo not drawn),inactive: -7.29%
20,CCN1C(=O)/C(=C/C=C2\N(CC)c3cc(S(=O)(=O)N(C)C)ccc3N2c2ccccc2)SC1=S,inconclusive: -46.2%
21,C[C@@]12CCC=C[C@H]1[C@H](c1ccc3ccccc3c1/C=C/c1ccccc1)N(Cc1ccccc1)C2=O,inconclusive: -42.6%
22,O=C1N/C(=N\S(=O)(=O)Cc2ccccc2)S/C1=C/c1cc([N+](=O)[O-])ccc1O,inconclusive: -33.3%

# Another view of part of the listing above:
row | Structure (SMILES) | max response, negative = inhibition
2 | CCOCCCNC(=S)NNC(=O)CCn1nc(C)c(Br)c1C | active: -97.1%
6 | Cc1cc(-c2ccc(C(C)C)c(S(=O)(=O)NCCN3CCC(C)CC3)c2)on1 | inactive: -17.8%

# Carrying on:

row,Structure (SMILES),"max response, negative = inhibition"
1,COc1ccc(COCC(O)CN(Cc2ccco2)Cc2ccccc2O)cc1 (stereo not drawn),inactive: -8.23%
2,O=C(NCCN1CCOCC1)c1cc2ccccc2o1,inconclusive: -36%
3,Cc1ccc(C)c(N2CCN(CCCNC(=O)CCn3c(=O)c4cccn4c4cccnc43)CC2)c1,inconclusive: -43.6%
4,COc1ccc(Nc2ncnc3ccc(Br)cc23)cc1OC,inactive: -6.74%
5,Cc1cc(OC(C)C(=O)Nc2ccc(S(=O)(=O)Nc3onc(C)c3C)cc2)cc(C)c1Cl (stereo not drawn),inconclusive: -30.1%
6,O=[N+]([O-])c1ccc(Oc2cccnc2)c([N+](=O)[O-])c1,inactive: -9.4%
7,O=[N+]([O-])c1cccc(SSc2cccc([N+](=O)[O-])c2)c1,active: -68.9%
8,O=C(N/N=C/c1cccc2ccccc12)c1cc(C2CC2)[nH]n1,inconclusive: -44.3%
9,CC(C)C(c1nnnn1C(C)(C)C)N1CCOCC1 (stereo not drawn),active: -61%
10,COc1ccc(/C=N/NC(=O)c2ccc3c(c2)OCCO3)c(OC)c1,active: -64.3%
11,COc1cccc(NC(=O)NCC2CCN(Cc3ccc(F)cc3)CC2)c1,inconclusive: -36.3%
12,CCN(CC)CCN(C(=O)c1ccc2c(c1)OCCO2)c1nc2cc(C)cc(C)c2s1,inconclusive: -44%
13,Cc1ccnc(NC(=O)c2sc3ccccc3c2Cl)c1,inconclusive: -39.1%
14,CC(=O)Nc1ccc([N+](=O)[O-])cn1,active: -53.3%
15,COc1ccc(-c2cc3c(=O)n(CC(=O)Nc4ccc(Cl)cc4)ncn3n2)cc1,inactive: -13%
16,COc1cc2cc(-c3ccc(OC)c(OC)c3C)nc(N)c2cc1OC,inconclusive: -34%
17,Cc1ccc(-c2nnc(N3CCC(C)CC3)c3ccccc23)cc1C,inconclusive: -47.8%
18,O=[N+]([O-])c1cc(Br)c(O)c(/C=N/Nc2nc3ccccc3s2)c1,inconclusive: -39%
19,COc1cccc(N2CCN(CC(=O)c3c[nH]c4ccc(OC)cc34)CC2C)c1 (stereo not drawn),inconclusive: -38.7%
20,O=C(N/N=C/c1cc(Br)c(Br)o1)c1cccnc1,inactive: -7.43%
21,CCOC(=O)C1CCN(Cc2ccc(F)c(F)c2)CC1,inconclusive: -40.8%
